Assay results published in article PMC9582199, “Molecular architecture of the glycogen- committed PP1/PTG holoenzyme” (Nature Communications, 2022).
These are yes or no findings as the source states them, for the method shown. For some assays here: Binding can be weak; no strength is given. For some assays here: In cells and extracts the contact can be indirect. Values belong to the molecule of their own block, whether it stands above or below them.

How the values were obtained:
[1] = target: T1, PTG^70-264 (human) (UniProt Q9UQK1); experiment: SEC-SAXS; co-purified PTG 70-264/His-PP1 7-330 complex, 4 mg/ml without and 6.5 mg/ml with 5 mM β-cyclodextrin; 50 mM Tris pH 8, 0.5 M NaCl, 10% glycerol, 1 mM DTT; 20 °C; both purified
T1 sequence: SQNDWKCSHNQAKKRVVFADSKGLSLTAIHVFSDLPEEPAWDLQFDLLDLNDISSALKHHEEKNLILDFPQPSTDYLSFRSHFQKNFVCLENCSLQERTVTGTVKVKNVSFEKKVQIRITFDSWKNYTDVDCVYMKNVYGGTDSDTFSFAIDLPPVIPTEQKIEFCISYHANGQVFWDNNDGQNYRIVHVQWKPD

[2] = target: T1, PTG^70-264 (human); experiment: crystal structure; co-expressed and co-purified PP1 7-300/PTG 70-264 complex with 5 mM β-cyclodextrin; dehydrated crystals; 2.7 Å in two directions, 3.9 Å in the third; both purified
[3] = target: T1, PTG^70-264 (human); experiment: grating-coupled interferometry (GCI); PTG 70-264 immobilised by amine coupling on 4PCH WAVE chip (1000 pg/mm^2); PP1 7-330 injected, 1:2 dilution series from 400 nM; 25 °C; 10 mM Hepes pH 7.2, 150 mM NaCl, 0.005% Tween 20; both purified
[4] = target: PP1^7-330 (GCI analyte); experiment: grating-coupled interferometry (GCI); CBM21 aa. 132-264 tested with PP1; both purified
[5] = target: 6xHis-tagged PP1^7-330; experiment: grating-coupled interferometry (GCI); 6xHis-tagged PP1 7-330 reversibly captured on 4PCP-NTA WAVE chip (3600 or 1600 pg/mm^2); peptides injected, 1:2 dilution series from 300 nM; 25 °C; 10 mM Hepes pH 7.2, 150 mM NaCl, 0.005% Tween 20, 0.2 mg/ml BSA; mass transport binding model; both purified

Molecule: 6xHis-tagged PP1^7-330 (enzyme)
- binding [1]: binds

B1: PTG CBM21 (residues 132-264) (domain or fragment, UniProt Q9UQK1 132-264)
chain: KNLILDFPQPSTDYLSFRSHFQKNFVCLENCSLQERTVTGTVKVKNVSFEKKVQIRITFDSWKNYTDVDCVYMKNVYGGTDSDTFSFAIDLPPVIPTEQKIEFCISYHANGQVFWDNNDGQNYRIVHVQWKPD
- binding [4]: no binding

B2: PTG peptide 81-132 (peptide, UniProt Q9UQK1 81-132, looked up)
peptide: AKKRVVFADSKGLSLTAIHVFSDLPEEPAWDLQFDLLDLNDISSALKHHEEK
notes: also called peptide 2; source: synthetic peptide, bought: ProteoGenix SAS
- binding [5]: binds

More lines, now with the values ahead:

- binding [2]: binds
Molecule: PP1^7-300 (enzyme)

- binding [3]: binds
Molecule: PP1^7-330 (GCI analyte) (enzyme)
